## Binding screen against folded nucleic acids

Targets, with sequences 5′ to 3′:
T1: SAM-II riboswitch RNA pseudoknot, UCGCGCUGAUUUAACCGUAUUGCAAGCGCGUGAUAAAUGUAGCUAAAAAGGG. About 21,000 compounds screened, about 200 hits.
T2: TPP riboswitch RNA three-way junction, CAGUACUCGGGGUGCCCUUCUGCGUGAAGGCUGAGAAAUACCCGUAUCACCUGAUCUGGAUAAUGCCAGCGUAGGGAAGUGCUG. About 24,000 compounds screened, about 160 hits.
T3: PreQ1 riboswitch RNA pseudoknot, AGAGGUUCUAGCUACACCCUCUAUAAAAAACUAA. From B. subtilis. About 24,000 compounds screened, about 170 hits.

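Compounds were printed on reactive glass slides in duplicate spots, a dye-labelled oligonucleotide was laid over them, and the fluorescence left after washing was read. For the PreQ1, TPP and SAM-II riboswitches the laboratory earlier reported (doi:10.1038/s41467-019-09493-3) 1 µM RNA, 2 h, and a rule that included a mean Z-score above 3 (spot signal-to-noise against the whole library), a score well above that on a control array, and duplicate spots agreeing (coefficient of variation under 100). The data file gives only the calls; its cut-offs may differ, and compounds hitting several targets are kept. A missing hit is not proof of no binding, and a hit is not a measured affinity.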
Key: 1 = hit, 0 = tested without a hit.
This is an unselected part of the compounds tested.
A dash means that no call is listed here.

Compound	T1	T2	T3
Cc1oc(-c2ccccc2F)nc1CNC1CC(=O)N(c2ccccc2)C1 (stereo unspecified)	0	0	0
O=C1c2cccnc2C(=O)N1CO	0	0	0
c1ccc(-n2cncn2)c(Cn2ccnc2-c2cc3n(n2)CCCNC3)c1	0	0	0
O=C(NCCCNc1cccnc1)c1cc(=O)[nH]c2ccccc12	0	0	0
C=CCN1CC(=O)C(c2nc3ccccc3s2)=C1N	-	0	0
N#CC1=C(N)Oc2cc(O)ccc2C1c1ccc(Cl)cc1Cl (stereo unspecified)	0	0	0
Cn1c(=O)c2c(nc(NC3CCCCC3)n2Cc2ccccc2F)n(C)c1=O	0	0	0
CC(C)c1ccc(-c2c(NCc3ccc(N(C)C)cc3)c(=O)c2=O)cc1	-	0	0
C=CCN1C(=O)C2(Nc3ccccc3C(=O)N2c2ccccc2)c2ccccc21 (stereo unspecified)	0	0	0
CN(CC(O)Cn1c2ccccc2c2ccccc21)S(=O)(=O)c1ccc(Cl)cc1 (stereo unspecified)	0	0	0
C=CCn1cc(CNCc2nc(-c3ccc(C(C)(C)C)cc3)no2)c(C)n1	0	0	0
CCS(=O)(=O)N1CC[C@@H]2[C@@H](CCC(=O)N2CCCN)C1	0	0	0
Nc1nccc(N2CCC(Oc3ccc(C(=O)NCc4ccccn4)cc3)CC2)n1	0	0	0
CN(Cc1cc(-c2ccccc2)no1)c1nc(N)nc2[nH]cnc12	0	0	0
COc1ccccc1-c1cc(C(F)(F)F)nc(NCc2cccs2)n1	0	0	0
Cc1ccccc1OCC(O)Cn1c(CO)nc2ccccc21 (stereo unspecified)	0	0	0
Nc1c(C(=O)c2ccccc2)sc2nc(-c3ccncc3)ccc12	0	0	0
O=C1C2C3c4ccccc4C(CO)(c4ccccc43)C2C(=O)N1c1ccc(F)cc1 (stereo unspecified)	0	0	0
CCOC(=O)c1c(C)nc(C)c(C(=O)OCC)c1-c1cccnc1	0	0	0
Cc1cnc(NC(=O)c2cccc(CN3CCNC(=O)C3CCO)c2)s1 (stereo unspecified)	0	0	0
Cc1nc2c([nH]1)CCN(C(=O)c1ccc(NC(=O)c3ccccc3-c3ccccc3)cc1)c1ccccc1-2	0	0	0
COc1cccc(NC(CNS(=O)(=O)c2ccccc2)c2ccccc2)c1 (stereo unspecified)	0	0	0
COc1ccccc1CNCc1cccc(Br)c1	0	0	0
COc1cc2c(cc1OC)[C@@H]1C(=O)c3ccc4c(c3O[C@@H]1CO2)C=CC(C)(C)O4	0	0	0
Cc1ccc(S(=O)(=O)OCC(=O)Nc2ccc(C(=O)O)c(O)c2)cc1	0	0	0
Cn1ncc2c(NCCNc3cccnc3)nc(-c3ccncc3)nc21	0	0	0
Cc1cnc(-c2ccc(C(C)(C)C)cc2)nc1N	0	0	0
CCOC(=O)C1=C(C)NC(=O)NC1c1ccc(OCCO)c(OC)c1 (stereo unspecified)	0	0	0
CCCCOc1ccc(C(=O)c2c(N)c(C(=O)Nc3ccc(OC)cc3)c3ccccn23)cc1	-	0	0
Cc1ncc(C(=O)NC(C)C)c(N)n1	0	0	0
Cc1cccc(C)c1NC(=O)Cn1nnc(C(=O)NCc2ccccc2Cl)c1N	-	0	0
Cn1nnnc1SCCNCc1cn(CCC(N)=O)c2ccccc12	0	0	0
CC1CCN(CC(O)COCCC23CC4CC(CC(C4)C2)C3)CC1.Cl (stereo unspecified)	0	0	0
COc1cc(CNC(C)(C)CO)cc(Br)c1OCC(N)=O	0	0	0
CCOc1ccccc1CNCc1c(C(=O)O)n(C)c2cc(OC)ccc12	-	0	0
Cc1ccc(OCCNC(C)(C)C)c(Cl)c1.Cl	0	0	0
O=C(O)c1cccc(NC2SC(=O)N(c3ccccc3)C2=O)c1 (stereo unspecified)	0	0	0
CC(c1nccs1)N(C)C(=O)c1cc(CN2CCC(O)CC2)on1 (stereo unspecified)	0	0	0
CC(NCc1csc(C23CC4CC(CC(C4)C2)C3)n1)c1ccco1 (stereo unspecified)	0	0	0
COCc1nc2ccccc2n1CC(O)COc1cc(C)c(Cl)c(C)c1 (stereo unspecified)	-	0	0
O=C(CC1CNCCO1)NCCNC(=O)c1ccccc1Cl (stereo unspecified)	0	0	0
CCc1nn2c(NCc3ccccn3)cc(C)nc2c1-c1ccc(Cl)cc1	-	0	0
O=c1nc(Nc2cccc(Cl)c2)oc2cc(Cl)oc(=O)c12	0	0	0
CC(C)CC(O)C1CCN(c2ccc3cccc(Cl)c3n2)CC1 (stereo unspecified)	0	0	0
Cn1c(=O)[nH]c(=O)c2c1nc(NCCCO)n2CCOc1ccccc1	0	0	0
CN(CCO)C[C@@H]1CN(c2cccnn2)C[C@@H]1CO	0	0	0
Cc1ccc(O)c(-c2n[nH]c3c2C(c2ccc(C(C)C)cc2)N(CCO)C3=O)c1 (stereo unspecified)	-	0	0
Cc1nc[nH]c1CN(CCO)CC12CC3CC(CC(C3)C1)C2	0	0	0
OCCCc1nc2ccccc2n1CCC1CCCCC1	0	0	0
CCn1cc(CN2CCC3(CC2)CCN(C(=O)C2CCC2)CC3CO)cn1 (stereo unspecified)	0	0	0
CC(=O)O[C@]1(C(C)=O)CC[C@H]2[C@@H]3C=C(C)C4=CC(=O)CC[C@]4(C)[C@@H]3CC[C@@]21C	0	0	0
Cc1cccc(-c2nn3c(N4CCN(CCO)CC4)cc(C)nc3c2C)c1	-	0	0
CC(C)c1ncc(C(=O)N2C[C@@H](CN3CCCN(C)CC3)[C@@H](CO)C2)cn1	0	0	0
CCOc1ccc(NC(=O)c2cnn(C(=O)c3ccc(OC)cc3)c2N)cc1	0	0	0
CCOC(=O)N1CCC(NCc2c(C(=O)O)n(Cc3ccccc3)c3ccccc23)CC1	-	0	0
Cn1c(=O)c2c(-c3ccc(Br)cc3)n(CCO)cc2n(C)c1=O	-	0	0
CCc1c(C)nc(N)nc1NCC(c1ccc(C)o1)N1CCOCC1 (stereo unspecified)	0	0	0
CN(CC1CC(=O)N(C(C)(C)C)C1)c1nccc(N2CCC(O)CC2)n1 (stereo unspecified)	0	0	0
CC(C)c1n[nH]c2c1C1(C(=O)Nc3ccc(Cl)cc31)C(C#N)=C(N)O2 (stereo unspecified)	0	0	0
O=C(O)Cn1nc(Cc2cccc(Cl)c2)nc1CN1CCCC(O)C1 (stereo unspecified)	0	0	0
COc1cc(C=Cc2nc(C#N)c(NC3CCCCC3)o2)cc(OC)c1OC	-	0	0

4 of the entries, repeated:

Compound	T1	T2	T3
Cn1c(=O)c2c(nc(NC3CCCCC3)n2Cc2ccccc2F)n(C)c1=O	0	0	0
Cn1c(=O)c2c(-c3ccc(Br)cc3)n(CCO)cc2n(C)c1=O	-	0	0
Cc1ccc(OCCNC(C)(C)C)c(Cl)c1.Cl	0	0	0
CC(C)c1ncc(C(=O)N2C[C@@H](CN3CCCN(C)CC3)[C@@H](CO)C2)cn1	0	0	0

Source: the ROBIN nucleic acid binder screens (doi:10.1002/anie.202211358).